According to the supplement of paper PMC6078165:
Values are relative to the signal before dosing, not to a vehicle control; the signal also falls without drug.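 Fibroblast labels name human fibroblasts: mostly primary ones from tissues such as uterus (C12385, HUF), lung (H6013), bone (Hs27A), adrenal (HADF) and skin (WS1), plus mammary HMF and breast cancer-associated Hs343T. The cancer cells are basal-like or mesenchymal-like triple-negative breast cancer lines. The paper calls a changed response a hit when it shifts by more than 3x the replicate standard deviation. The tissue of the other fibroblasts is not given here.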

Tested on: MDAMB468
Assay: relative JC-1 red fluorescence (viability) vs pre-drug, coculture with fibroblast (fraction); higher = more viable cancer cells
Procedure: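 JC-1 labelled TNBC cells cocultured 1:1 (1,500 cells each) with CellTrace Violet stained primary or stromal fibroblasts in 384-well plates in FluoroBrite medium, treated with one of 42 anticancer drugs at 0.1, 1, 10 or 100 uM. JC-1 red fluorescence (mitochondrial integrity in cancer cells only) was read by plate reader every 8 h for 72 h. Values are normalised to each well's pre-drug value. The stock of one drug was tenfold lower, so its dose labels may be too high.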

CCC1=C[C@@H]2CN(C1)Cc1c([nH]c3ccccc13)[C@@](C(=O)OC)(c1cc3c(cc1OC)N(C)[C@H]1[C@@](O)(C(=O)OC)[C@H](OC(C)=O)[C@]4(CC)C=CCN5CC[C@]31[C@@H]54)C2 [Vinorelbine]
relative JC-1 red fluorescence
Settings	8 h	16 h	24 h	32 h	40 h	48 h	56 h	64 h	72 h
10 µM, coculture fibroblast: C12385	0.8945	0.8868	0.8816	0.83947	0.81108	0.804	0.7738	0.745	0.726
10 µM, coculture fibroblast: H6013	0.847	0.872	0.841	0.8405	0.81	0.8263	0.802	0.792	0.783
10 µM, coculture fibroblast: H6019	0.856	0.852	0.851	0.815	0.792	0.783	0.76	0.736	0.725
10 µM, coculture fibroblast: H6076	0.917	0.829	0.98	0.966	0.904	0.901	0.856	0.831	0.832
10 µM, coculture fibroblast: H6231	0.808	0.929	0.969	0.9548	0.9486	0.941	0.904	0.899	0.885
10 µM, coculture fibroblast: HADF	0.872	0.884	0.86	0.882	0.836	0.835	0.813	0.807	0.798
10 µM, coculture fibroblast: HCFa	0.866	0.9	0.876	0.894	0.861	0.892	0.856	0.83	0.819
10 µM, coculture fibroblast: HCPF	0.87	0.897	0.939	0.894	0.936	0.926	0.86	0.84	0.809
10 µM, coculture fibroblast: HHSteC	0.8764	0.9011	0.881	0.875	0.839	0.855	0.80617	0.8012	0.769
10 µM, coculture fibroblast: HMF	0.86957	0.852	0.839	0.761	0.902	0.779	0.962	0.935	0.897
10 µM, coculture fibroblast: HPFa	0.892	0.893	0.868	0.843	0.817	0.832	0.79	0.782	0.737
10 µM, coculture fibroblast: HUF	0.936	0.911	0.88	0.844	0.799	0.804	0.783	0.751	0.722
10 µM, coculture fibroblast: Hs5	0.883	0.757	0.846	0.812	0.972	0.945	0.912	0.881	0.895
10 µM, coculture fibroblast: Hs27A	0.836	0.854	0.804	0.827	0.7687	0.7705	0.752	0.741	0.769
10 µM, coculture fibroblast: Hs343T	0.917	0.819	0.737	0.718	0.854	0.81	0.915	0.905	0.868
10 µM, coculture fibroblast: WS1	0.895	0.868	0.858	0.826	0.792	0.765	0.745	0.712	0.707
100 µM, coculture fibroblast: C12385	0.716	0.645	0.471	0.324	0.266	0.241	0.191	0.164	0.136
100 µM, coculture fibroblast: H6013	0.711	0.425	0.339	0.278	0.243	0.225	0.184	0.158	0.107
100 µM, coculture fibroblast: H6019	0.77	0.465	0.313	0.236	0.186	0.168	0.134	0.114	0.0999
100 µM, coculture fibroblast: H6076	0.906	0.648	0.613	0.639	0.543	0.493	0.549	0.485	0.539
100 µM, coculture fibroblast: H6231	0.802	0.864	0.684	0.667	0.575	0.553	0.512	0.49	0.453
100 µM, coculture fibroblast: HADF	0.753	0.456	0.319	0.255	0.215	0.196	0.159	0.134	0.0864
100 µM, coculture fibroblast: HCFa	0.884	0.698	0.535	0.439	0.356	0.333	0.281	0.244	0.189
100 µM, coculture fibroblast: HCPF	0.939	0.776	0.82	0.824	0.894	0.866	0.965	0.949	0.938
100 µM, coculture fibroblast: HHSteC	0.744	0.4336	0.34	0.27	0.237	0.229	0.168	0.143	0.0937
100 µM, coculture fibroblast: HMF	0.937	0.846	0.828	0.85	0.94	0.941	0.886	0.858	0.846
100 µM, coculture fibroblast: HPFa	0.892	0.881	0.752	0.546	0.498	0.473	0.397	0.366	0.288
100 µM, coculture fibroblast: HUF	0.801	0.599	0.378	0.275	0.219	0.195	0.15	0.13	0.108
100 µM, coculture fibroblast: Hs5	0.849	0.582	0.396	0.342	0.26	0.223	0.191	0.156	0.161
100 µM, coculture fibroblast: Hs27A	0.726	0.431	0.346	0.282	0.244	0.217	0.185	0.163	0.113
100 µM, coculture fibroblast: Hs343T	0.839	0.853	0.816	0.872	0.823	0.836	0.975	0.96	0.948
100 µM, coculture fibroblast: WS1	0.765	0.484	0.343	0.275	0.23	0.2	0.17	0.141	0.124
